From PubChem BioAssay AID1794845 (National Center for Advancing Translational Sciences (NCATS), 2023)
Fewer than 10 of roughly 6,900 compounds were called active. The call rests on the fitted dose curve; in most records, active means well fitted curve in the direction sought with a large enough effect; inconclusive means small, poorly fitted or top-dose-only effect, or another doubt; inactive means no such curve, though single readings can be large or run the other way. The list shows a part of the results.

The chains behind the UniProt entries cited, without tags or fusion partners. Where a name states a change or a piece, a line headed by the entry shows the natural chain unless it says otherwise.
UniProt C7C422: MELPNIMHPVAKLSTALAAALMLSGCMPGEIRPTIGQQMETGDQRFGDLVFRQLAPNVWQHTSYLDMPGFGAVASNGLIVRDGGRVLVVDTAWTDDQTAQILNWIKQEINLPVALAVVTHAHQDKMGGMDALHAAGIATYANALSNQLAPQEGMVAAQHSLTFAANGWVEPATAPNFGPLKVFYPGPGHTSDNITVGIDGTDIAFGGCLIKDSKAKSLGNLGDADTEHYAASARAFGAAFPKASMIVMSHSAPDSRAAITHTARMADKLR

target: Metallo-beta-lactamase type 2 (Klebsiella pneumoniae) (UniProt C7C422); assay: qHTS to identify inhibitors of the New Delhi Metallo-beta-lactamase (NDM): primary screen against the NCATS Gemini Collection; conditions: NDM-1 enzyme, meropenem hydrolysis, absorbance 300 nm; at 38.4 µM (top of the series) unless noted; further: % of control where 0% means no effect
Summary of the method: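 Meropenem hydrolysis (50 uM final) by 2 nM NDM-1 read as 300 nm absorbance after 30 min, following >30 min compound–enzyme preincubation in HEPES pH 7.0 with 1 uM ZnSO4 and 0.01% Tween20.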

Row | SMILES | activity % (negative = inhibition)
1 | CC(C)c1cc(C(=O)N[C@@H]2COCC[C@@H]2Oc2cccc(F)c2)nc(N)n1 | inactive: 2.46%
2 | O=C(c1ccc(F)cc1)N1CCC(OCCOc2cccnc2)CC1 | inactive: 18.3%
3 | COc1ccc(C(=O)N2CCCN(c3nnc4ccc(Cl)cn34)CC2)cn1 | inactive: -9.23%
4 | O=C1CCN(Cc2ccncc2)CCCC(C(=O)NCCCN2CCCC2=O)CCN1 (centres undefined) | inactive: 7%
5 | Cc1nn(C)cc1C(=O)N1C[C@@H](CO)[C@H](c2ccncc2)C1 | inactive: 0.936%
6 | CCOC(=O)N1CCC(NC(=O)c2ccccc2C2CCNC2)CC1 (centres undefined) | inactive: 8.32%
7 | CCCC(=O)N1CCC(O)(c2ccccc2)[C@H](N2CCCC2)C1 (some centres undefined) | inactive: 3.37%
8 | O=C(c1ccccc1F)N1CCC2(CC(c3cccc(C(F)(F)F)c3)=NO2)C1 (centres undefined) | inactive: 8.37%
9 | CCCCc1cc(C[C@H]2CNCC[C@H]2CC(=O)N2CCC(Cc3ccccc3)CC2)no1 | inactive: 3.38%
10 | CN1C(=O)c2cccn2CC1CNC(=O)c1cccc2nccnc12 (centres undefined) | inactive: -0.0294%
11 | O=C1NC[C@@H](CCC(=O)N2CCc3ccccc32)N2C[C@@H](NCc3ccc(CO)o3)C[C@@H]12 | inactive: 0.433%
12 | CC(=O)Nc1cccc(-c2cc3c(cn2)CN(Cc2ccccc2)CCN3)c1 | inactive: 8.71% [at 57.5 µM]
13 | CCCNC(=O)C1CCc2ncc(-c3ccc(OC)cc3)n2C1 (centres undefined) | inactive: 8.93%
14 | COc1cccc(CCC(=O)N2CCC3(CC2)N=C(c2ccccc2)NO3)c1 | inactive: 16.3%
15 | COCCN1C(=O)CS(=O)C12CCN(S(=O)(=O)c1ccccc1)CC2 (centres undefined) | inactive: 12.7%
16 | CCOCC(=O)Nc1nn(-c2ccc(F)cc2)c2cccc(N3CCOC3=O)c12 | inactive: 5.81%
17 | Cc1cnc(CCNC(=O)c2cccs2)n1C1CCC1 | inactive: 0.936%
18 | CCCNC(=O)O[C@@H]1CC[C@]2(C)[C@H](CC[C@@H](O)[C@H]2CC(=O)N2CCCC2)[C@]1(C)CO | inactive: -0.131% [at 57.5 µM]
19 | COc1cccc(-c2cn3c(n2)N(C(=O)Cc2cccs2)CCC3)c1 | inactive: 21%
20 | CNC(=O)C1(N2CCC[C@H]2C(=O)N(C)Cc2cccnc2)CCOCC1 | inactive: 46.2% [at 57.5 µM]
21 | CC(C)c1noc(-c2cn(C3CCN(C(=O)c4ccc(Cl)s4)C3)nn2)n1 (centres undefined) | inactive: 22.1%
22 | CN(C)C[C@@H]1CN(c2ccncn2)C[C@H]1NC(=O)COc1ccccc1 | inactive: 25.5%
23 | Cn1cc(CN2CCN(c3ccc(C#N)cn3)CC2)c(-c2ccccc2)n1 | inactive: 12.2%
24 | Cc1ccc(C)c(-c2cc(C(=O)N3CCCC3c3nncn3C(C)C)[nH]n2)c1 (centres undefined) | inactive: -0.954%

Some of the entries above in a different format.
CN1C(=O)c2cccn2CC1CNC(=O)c1cccc2nccnc12 (centres undefined)
  activity % (negative = inhibition): inactive: -0.0294%
O=C1NC[C@@H](CCC(=O)N2CCc3ccccc32)N2C[C@@H](NCc3ccc(CO)o3)C[C@@H]12
  activity % (negative = inhibition): inactive: 0.433%
